Test results reported in PubChem BioAssay (NCATS).
This list was built around the results that the source calls inconclusive (neither active nor inactive); the mix of calls is not that of the screen. A potency beside an inconclusive call is a rough fit, not a confirmed value. Activity calls are given as the source filed them. The call rests on the fitted dose curve; in most records, active means well fitted curve in the direction sought with a large enough effect; inconclusive means small, poorly fitted or top-dose-only effect, or another doubt; inactive means no such curve, though single readings can be large; an effect the other way counts as inactive or inconclusive.

Sequences of proteins named here, by UniProt entry; tags and fusion partners are left off. A change or cut given only in a name is not applied to a line headed by its entry.
UniProt Q9UNA4: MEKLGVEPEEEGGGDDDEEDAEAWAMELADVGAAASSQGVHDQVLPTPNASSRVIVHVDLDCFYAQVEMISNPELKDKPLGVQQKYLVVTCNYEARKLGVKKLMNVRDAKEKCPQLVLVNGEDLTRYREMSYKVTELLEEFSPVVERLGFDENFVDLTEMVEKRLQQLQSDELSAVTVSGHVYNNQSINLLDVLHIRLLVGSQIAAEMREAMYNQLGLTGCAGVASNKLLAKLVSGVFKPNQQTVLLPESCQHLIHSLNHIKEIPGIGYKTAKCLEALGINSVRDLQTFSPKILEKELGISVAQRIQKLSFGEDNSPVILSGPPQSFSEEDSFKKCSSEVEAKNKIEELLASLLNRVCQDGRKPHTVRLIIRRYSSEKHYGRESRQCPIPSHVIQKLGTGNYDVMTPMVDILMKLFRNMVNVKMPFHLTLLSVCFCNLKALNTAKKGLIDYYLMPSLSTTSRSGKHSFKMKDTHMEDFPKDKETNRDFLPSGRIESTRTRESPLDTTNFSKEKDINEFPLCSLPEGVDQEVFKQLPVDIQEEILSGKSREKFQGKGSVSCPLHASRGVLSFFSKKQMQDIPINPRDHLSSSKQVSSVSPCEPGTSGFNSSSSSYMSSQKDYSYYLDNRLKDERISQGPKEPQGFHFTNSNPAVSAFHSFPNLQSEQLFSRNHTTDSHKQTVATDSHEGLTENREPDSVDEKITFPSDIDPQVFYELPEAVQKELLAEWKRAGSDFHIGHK
UniProt Q9Y253: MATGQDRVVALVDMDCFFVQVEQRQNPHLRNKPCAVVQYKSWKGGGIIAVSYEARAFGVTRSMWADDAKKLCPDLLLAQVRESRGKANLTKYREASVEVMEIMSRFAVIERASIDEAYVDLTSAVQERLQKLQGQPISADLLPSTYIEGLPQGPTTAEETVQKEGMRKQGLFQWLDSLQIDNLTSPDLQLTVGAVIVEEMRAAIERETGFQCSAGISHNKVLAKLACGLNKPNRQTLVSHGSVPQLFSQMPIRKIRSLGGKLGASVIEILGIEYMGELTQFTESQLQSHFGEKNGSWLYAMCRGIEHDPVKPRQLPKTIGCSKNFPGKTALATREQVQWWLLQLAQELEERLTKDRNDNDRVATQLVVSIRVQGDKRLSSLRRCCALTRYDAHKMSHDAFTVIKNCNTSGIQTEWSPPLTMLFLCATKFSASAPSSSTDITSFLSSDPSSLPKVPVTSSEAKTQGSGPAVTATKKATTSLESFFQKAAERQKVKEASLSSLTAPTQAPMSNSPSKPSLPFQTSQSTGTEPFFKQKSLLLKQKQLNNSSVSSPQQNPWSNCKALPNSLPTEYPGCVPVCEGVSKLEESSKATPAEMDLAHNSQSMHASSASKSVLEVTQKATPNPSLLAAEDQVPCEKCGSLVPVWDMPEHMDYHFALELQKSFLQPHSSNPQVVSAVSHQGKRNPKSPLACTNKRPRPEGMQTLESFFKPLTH
UniProt P39748, whole entry, looked up: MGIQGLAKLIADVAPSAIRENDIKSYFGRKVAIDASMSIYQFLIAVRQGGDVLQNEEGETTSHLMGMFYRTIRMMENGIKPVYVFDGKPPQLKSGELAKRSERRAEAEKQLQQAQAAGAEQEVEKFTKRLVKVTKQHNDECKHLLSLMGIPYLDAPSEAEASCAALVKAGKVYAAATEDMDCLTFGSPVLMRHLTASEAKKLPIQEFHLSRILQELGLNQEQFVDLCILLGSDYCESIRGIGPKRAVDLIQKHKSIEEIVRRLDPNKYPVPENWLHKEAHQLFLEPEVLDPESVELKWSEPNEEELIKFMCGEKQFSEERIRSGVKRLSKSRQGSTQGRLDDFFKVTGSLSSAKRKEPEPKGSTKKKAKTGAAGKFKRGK
UniProt Q9UBT6: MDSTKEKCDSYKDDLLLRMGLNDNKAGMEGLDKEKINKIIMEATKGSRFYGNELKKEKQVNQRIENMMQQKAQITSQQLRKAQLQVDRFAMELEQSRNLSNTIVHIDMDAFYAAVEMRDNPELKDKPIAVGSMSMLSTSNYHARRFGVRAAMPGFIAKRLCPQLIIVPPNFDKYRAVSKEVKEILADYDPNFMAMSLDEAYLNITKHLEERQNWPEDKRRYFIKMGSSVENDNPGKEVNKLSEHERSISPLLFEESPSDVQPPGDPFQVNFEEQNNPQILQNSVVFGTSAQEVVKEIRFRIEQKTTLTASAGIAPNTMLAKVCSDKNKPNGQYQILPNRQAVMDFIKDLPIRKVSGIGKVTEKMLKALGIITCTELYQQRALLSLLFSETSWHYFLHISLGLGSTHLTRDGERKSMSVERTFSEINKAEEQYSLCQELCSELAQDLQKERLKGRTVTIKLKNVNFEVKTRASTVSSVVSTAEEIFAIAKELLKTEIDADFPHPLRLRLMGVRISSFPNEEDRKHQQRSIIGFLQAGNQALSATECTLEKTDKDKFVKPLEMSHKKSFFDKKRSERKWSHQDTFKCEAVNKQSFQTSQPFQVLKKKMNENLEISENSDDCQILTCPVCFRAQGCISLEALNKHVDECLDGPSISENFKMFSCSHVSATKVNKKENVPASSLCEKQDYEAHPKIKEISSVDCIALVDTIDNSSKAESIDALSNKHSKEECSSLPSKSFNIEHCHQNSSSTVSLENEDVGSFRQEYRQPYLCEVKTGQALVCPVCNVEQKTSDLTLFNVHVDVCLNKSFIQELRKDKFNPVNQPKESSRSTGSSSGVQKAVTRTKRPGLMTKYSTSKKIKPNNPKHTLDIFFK
UniProt Q14191, whole entry, looked up: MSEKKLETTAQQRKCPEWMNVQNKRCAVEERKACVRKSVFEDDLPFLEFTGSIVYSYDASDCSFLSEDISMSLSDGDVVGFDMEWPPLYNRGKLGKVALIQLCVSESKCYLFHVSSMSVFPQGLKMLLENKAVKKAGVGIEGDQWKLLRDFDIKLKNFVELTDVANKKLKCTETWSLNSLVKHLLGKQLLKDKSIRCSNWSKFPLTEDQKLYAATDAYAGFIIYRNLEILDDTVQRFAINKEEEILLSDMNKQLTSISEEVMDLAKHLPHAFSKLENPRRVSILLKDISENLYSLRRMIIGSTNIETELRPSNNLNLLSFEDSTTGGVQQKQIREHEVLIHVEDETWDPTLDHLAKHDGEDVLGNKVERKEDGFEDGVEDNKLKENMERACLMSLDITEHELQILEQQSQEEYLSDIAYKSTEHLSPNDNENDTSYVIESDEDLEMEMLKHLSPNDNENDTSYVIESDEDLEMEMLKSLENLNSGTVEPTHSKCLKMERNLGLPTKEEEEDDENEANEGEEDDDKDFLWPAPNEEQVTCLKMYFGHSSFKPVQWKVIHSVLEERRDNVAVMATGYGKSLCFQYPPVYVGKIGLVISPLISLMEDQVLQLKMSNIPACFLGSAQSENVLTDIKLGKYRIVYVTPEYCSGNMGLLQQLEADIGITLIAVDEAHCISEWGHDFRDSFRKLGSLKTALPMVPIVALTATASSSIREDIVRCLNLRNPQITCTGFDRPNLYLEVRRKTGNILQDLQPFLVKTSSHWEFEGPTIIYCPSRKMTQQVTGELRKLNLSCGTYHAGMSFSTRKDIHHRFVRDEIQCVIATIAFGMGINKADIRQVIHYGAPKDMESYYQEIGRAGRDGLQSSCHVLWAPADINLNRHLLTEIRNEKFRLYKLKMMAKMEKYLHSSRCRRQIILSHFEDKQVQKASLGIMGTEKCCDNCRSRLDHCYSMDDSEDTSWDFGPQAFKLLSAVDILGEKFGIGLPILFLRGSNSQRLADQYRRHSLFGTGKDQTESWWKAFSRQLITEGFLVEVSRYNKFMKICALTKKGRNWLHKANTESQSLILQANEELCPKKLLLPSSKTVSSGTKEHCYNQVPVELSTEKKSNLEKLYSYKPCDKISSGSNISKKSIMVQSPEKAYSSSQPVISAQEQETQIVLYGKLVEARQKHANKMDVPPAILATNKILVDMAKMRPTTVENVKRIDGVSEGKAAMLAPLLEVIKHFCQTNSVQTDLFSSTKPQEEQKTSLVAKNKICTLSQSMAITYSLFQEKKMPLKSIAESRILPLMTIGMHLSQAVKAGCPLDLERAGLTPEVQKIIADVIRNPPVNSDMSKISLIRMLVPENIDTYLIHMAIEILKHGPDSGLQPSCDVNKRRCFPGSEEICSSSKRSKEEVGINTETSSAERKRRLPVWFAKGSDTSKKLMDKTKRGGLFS
UniProt P54132: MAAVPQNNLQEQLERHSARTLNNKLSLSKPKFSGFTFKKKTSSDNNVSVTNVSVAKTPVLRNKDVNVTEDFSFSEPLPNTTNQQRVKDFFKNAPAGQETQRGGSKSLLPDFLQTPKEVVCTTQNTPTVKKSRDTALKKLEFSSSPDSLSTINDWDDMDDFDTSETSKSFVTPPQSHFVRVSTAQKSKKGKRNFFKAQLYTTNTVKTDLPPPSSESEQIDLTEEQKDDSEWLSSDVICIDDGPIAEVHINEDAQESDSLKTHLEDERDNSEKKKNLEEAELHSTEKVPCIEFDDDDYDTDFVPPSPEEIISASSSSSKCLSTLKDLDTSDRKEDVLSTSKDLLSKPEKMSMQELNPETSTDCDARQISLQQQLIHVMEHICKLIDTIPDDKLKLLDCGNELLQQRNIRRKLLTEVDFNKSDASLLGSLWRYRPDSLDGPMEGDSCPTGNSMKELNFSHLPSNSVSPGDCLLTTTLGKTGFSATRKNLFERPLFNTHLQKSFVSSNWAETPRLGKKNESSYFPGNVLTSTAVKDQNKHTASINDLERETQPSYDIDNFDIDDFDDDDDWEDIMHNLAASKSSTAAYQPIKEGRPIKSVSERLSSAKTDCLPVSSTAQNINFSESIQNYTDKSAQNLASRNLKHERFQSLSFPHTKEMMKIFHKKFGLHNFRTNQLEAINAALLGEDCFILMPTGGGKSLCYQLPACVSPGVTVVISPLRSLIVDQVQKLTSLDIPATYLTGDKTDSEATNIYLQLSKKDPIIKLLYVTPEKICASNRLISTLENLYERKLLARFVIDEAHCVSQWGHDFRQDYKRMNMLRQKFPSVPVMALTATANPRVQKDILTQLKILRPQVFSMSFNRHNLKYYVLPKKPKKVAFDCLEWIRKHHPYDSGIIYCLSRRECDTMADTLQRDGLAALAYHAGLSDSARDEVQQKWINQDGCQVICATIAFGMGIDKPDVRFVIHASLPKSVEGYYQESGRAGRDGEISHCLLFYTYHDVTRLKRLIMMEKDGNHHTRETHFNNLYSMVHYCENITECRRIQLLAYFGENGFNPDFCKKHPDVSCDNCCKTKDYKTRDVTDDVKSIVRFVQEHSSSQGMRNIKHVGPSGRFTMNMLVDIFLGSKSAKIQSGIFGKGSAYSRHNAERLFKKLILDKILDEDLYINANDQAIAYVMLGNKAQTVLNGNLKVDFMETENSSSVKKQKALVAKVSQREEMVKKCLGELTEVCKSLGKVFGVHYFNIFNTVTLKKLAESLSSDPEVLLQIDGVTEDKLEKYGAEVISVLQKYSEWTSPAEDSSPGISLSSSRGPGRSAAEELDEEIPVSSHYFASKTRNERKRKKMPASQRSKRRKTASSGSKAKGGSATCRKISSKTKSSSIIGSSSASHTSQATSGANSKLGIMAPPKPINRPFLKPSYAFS

Legend:
[1] = target: DNA polymerase iota (Homo sapiens) (UniProt Q9UNA4); assay: qHTS for Inhibitors of Polymerase Iota: Confirmatory Assay for Cherry-picked Compounds (AID 720496); settings: Pol iota primer extension, TAMRA/BHQ fluorescence
Procedure, shortened: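 Human Pol iota (10 nM) was preincubated 15 min at room temperature with compound, then started with 50 nM TAMRA/BHQ-2 quenched primer-template substrate. Fluorescence (ex 525/em 598 nm) was read at 0 and 10 min.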

[2] = target: DNA polymerase eta (Homo sapiens) (UniProt Q9Y253); assay: qHTS for Inhibitors of Polymerase Eta: Confirmatory Assay for Cherry-picked Compounds (AID 720502); settings: Pol eta primer extension, TAMRA/BHQ fluorescence, 10 min
Procedure, shortened: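 Enzyme at 10 nM is mixed with pin-transferred compound and left 15 min at room temperature. Substrate (50 nM final) is then added, and plates are read at 0 min and after 10 min.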

[3] = target: Flap endonuclease 1 (Homo sapiens) (UniProt P39748); assay: qHTS Assay for the Inhibitors of FEN1: Confirmatory Assay for Cherry-picked Compounds (AID 720498); settings: FEN1 flap cleavage, TAMRA/BHQ2 fluorogenic DNA substrate; further: nearly all actives have a fitted effect of over 60% in size
Procedure, shortened: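 FEN1 at 10 nM was preincubated with compound for 15 min at room temperature, then 50 nM (final) double-flap DNA substrate was added. TAMRA fluorescence released from the BHQ-2-quenched flap was read at 0 and 15 min (ex 525/em 598 nm).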

[4] = target: DNA polymerase kappa (Homo sapiens) (UniProt Q9UBT6); assay: qHTS for Inhibitors of Polymerase Kappa: Confirmatory Assay for Cherry-picked Compounds (AID 720501); settings: purified Pol-kappa, fluorescent strand-displacement substrate
Procedure, shortened: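 Strand-displacement fluorescence read-out: TAMRA reporter released from a BHQ-2-quenched template, measured at 525/598 nm over a 10 min kinetic window. Substrate was 50 nM final; enzyme was 10 nM Pol-kappa, preincubated 15 min at room temperature with compound.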

[5] = target: Bifunctional 3'-5' exonuclease/ATP-dependent helicase WRN (Homo sapiens) (UniProt Q14191); assay: qHTS for Inhibitors of WRN Helicase: Confirmatory Assay for Cherry-picked Compounds. (AID 720497); settings: WRN helicase DNA unwinding, fluorescence kinetic; further: nearly all actives have a fitted effect of over 65% in size
Procedure, shortened: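 Compound and 20 nM WRN incubated 15 min, RT. Forked duplex (100 nM) plus ATP (2 mM) added. Fluorescence monitored kinetically and normalized to controls.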

[6] = target: RecQ-like DNA helicase BLM (Homo sapiens) (UniProt P54132); assay: qHTS for Inhibitors of WRN Helicase: BLM Helicase Counterscreen for WRN Inhibitors (AID 720503); settings: Recombinant BLM helicase DNA unwinding, red fluorescence; further: nearly all actives have a fitted effect of over 60% in size
Procedure, shortened: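 BLM at 1 nM was preincubated with compound for 15 min at room temperature in 25 mM Tris-HCl pH 8.0, 50 mM NaCl, 2 mM MgCl2, 1 mM DTT and 0.01% Tween-20. Unwinding was started with 100 nM DNA and 2 mM ATP (final). Fluorescence (ex 525/em 598 nm) was read twice, 15 min apart, and normalized to enzyme-free and DMSO controls.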
Potency means the concentration at half of the fitted maximal effect.

Cc1nnc(N2C(=O)c3oc4ccccc4c(=O)c3C2c2ccco2)s1 (stereo not given)
Potency [1]: inconclusive: 75.2 µM [inhibitor, partial curve]
Potency [2]: inconclusive: 84.9 µM [inhibitor, single point]

COC(=O)c1ccc(NC(=O)c2ccc(NC(=O)c3ccco3)cc2)cc1
Potency [1]: inconclusive: 37.7 µM [inhibitor, partial curve]
Potency [3]: inconclusive: 37.9 µM [inhibitor, partial curve]

N#CCC(=O)Nc1ccc(C(=O)OCC(=O)N2CCN(C(=O)c3ccco3)CC2)cc1
Potency [1]: inconclusive: 53.2 µM [inhibitor, partial curve]
Potency [2]: inconclusive: 84.9 µM [inhibitor, single point]

N#Cc1ccccc1S(=O)(=O)N1CCN(C(=O)c2cc3c(s2)CCC3)CC1
Potency [1]: inconclusive: 67 µM [inhibitor, partial curve]
Potency [4]: inconclusive: 37.7 µM [inhibitor, partial curve]
Potency [2]: inconclusive: 84.9 µM [inhibitor, single point]

NC(=S)NN=Cc1ccc(-c2ccc(S(=O)(=O)Nc3ncccn3)cc2)o1
Potency [1]: inconclusive: 29.9 µM [inhibitor, full curve]
Potency [4]: inconclusive: 3.77 µM [inhibitor, full curve, poor fit]

O=[N+]([O-])c1cc(/C=N/Nc2nc3ccccc3[nH]2)c(O)cc1O
Potency [1]: inconclusive: 84.4 µM [inhibitor, partial curve]
Potency [2]: inconclusive: 60.1 µM [inhibitor, partial curve, poor fit]

Cc1cc(C(=O)NNC(=O)/C=C/c2ccco2)c(C)o1
Potency [1]: inconclusive: 53.2 µM [inhibitor, partial curve]
Potency [2]: active: 16.9 µM

COc1ccc(/C=C/C(=O)OCC(=O)NCc2ccco2)cc1OC
Potency [1]: inconclusive: 75.2 µM [inhibitor, partial curve]
Potency [2]: inconclusive: 84.9 µM [inhibitor, single point]

Cc1ccc(CNC(=O)c2ccc(-n3cccc3)cc2)cc1
Potency [1]: active: 18.9 µM
Potency [4]: active: 18.9 µM

S=c1[nH]nc(-c2cc(-c3ccccc3)n[nH]2)n1/N=C/C=C/c1ccco1
Potency [1]: inconclusive: 67 µM [inhibitor, partial curve]
Potency [4]: active: 23.8 µM

CCCCn1c(N)c(N(CCOC)C(=O)c2cc(-c3ccco3)nc3ccccc23)c(=O)[nH]c1=O
Potency [1]: inconclusive: 67 µM [inhibitor, partial curve]
Potency [2]: inconclusive: 84.9 µM [inhibitor, single point]

Cc1ccc(-n2cccc2/C=C2/C(=N)N3C(=NC2=O)SN=C3S(C)(=O)=O)cc1
Potency [1]: active: 84.4 µM
Potency [2]: active: 67.5 µM

CN(C)c1ccc2cc(S(=O)(=O)O)cc(O)c2c1
Potency [1]: inconclusive: 59.7 µM [inhibitor, partial curve]
Potency [2]: active: 19 µM

CCc1ccc(-n2cccc2/C=C2/C(=N)N3C(=NC2=O)SN=C3S(C)(=O)=O)cc1
Potency [1]: inconclusive: 84.4 µM [inhibitor, single point]
Potency [4]: active: 67 µM

Oc1ccc(/C=N/Nc2ccc(Cl)nn2)c(O)c1O
Potency [1]: active: 16.8 µM
Potency [2]: active: 30.1 µM

COc1ccc(N2Cc3cccc(C(=O)Nc4ccc(C)cc4)c3C2=O)cc1
Potency [1]: inconclusive: 67 µM [inhibitor, partial curve]
Potency [2]: inconclusive: 84.9 µM [inhibitor, single point]

O=[N+]([O-])c1cc(Cl)cc(/C=N/NC(=S)Nc2ccc(S(=O)(=O)N3CCOCC3)cc2)c1O
Potency [1]: inconclusive: 84.4 µM [inhibitor, single point]
Potency [2]: inconclusive: 84.9 µM [inhibitor, single point]

O=C(Nc1ccccc1F)c1cc(-c2ccco2)nc2ccccc12
Potency [1]: inconclusive: 67 µM [inhibitor, partial curve]
Potency [2]: active: 84.9 µM

CC(=O)c1cccc(NC(=O)CSc2ccc(-c3ccco3)nn2)c1
Potency [1]: inconclusive: 67 µM [inhibitor, partial curve]
Potency [2]: inconclusive: 84.9 µM [inhibitor, single point]

CCOC(=O)CN(C(=O)c1snc(C(N)=O)c1N)C(C(=O)NC1CCCCC1)c1ccc(F)cc1 (stereo not given)
Potency [1]: active: 42.3 µM
Potency [2]: inconclusive: 75.7 µM [inhibitor, single point]

CN(C)c1ccc(-c2ccc3c(=O)c4ccccc4n(C)c3c2)cn1
Potency [1]: inconclusive: 67 µM [inhibitor, partial curve]
Potency [2]: inconclusive: 75.7 µM [inhibitor, partial curve]

O=C(O)COc1ccccc1/C=N/NC(=O)/C(=C\c1ccc2c(c1)OCO2)NC(=O)c1ccccc1
Potency [1]: active: 42.3 µM
Potency [2]: inconclusive: 84.9 µM [inhibitor, single point]

COc1ccc2c([N+](=O)[O-])c(Cl)[nH]c2c1
Potency [1]: active: 37.7 µM
Potency [2]: active: 26.9 µM

COc1ccc(Cl)cc1NC(=O)CCS(=O)(=O)c1ccc(Br)cc1
Potency [5]: active: 21.5 µM

O=C1ON=C(c2ccc([N+](=O)[O-])cc2)/C1=C/c1ccccc1O
Potency [5]: inactive

Cc1cc(=O)oc2cc(Oc3ccc(C(N)=O)cc3[N+](=O)[O-])ccc12
Potency [5]: inconclusive: 21.5 µM [inhibitor, partial curve]

Cc1ccc(C)c(SCC(=O)OCC(=O)c2ccco2)c1
Potency [1]: inconclusive: 75.2 µM [inhibitor, partial curve]
Potency [2]: inconclusive: 84.9 µM [inhibitor, single point]

Nc1nc(=S)c2ncn(C3OC(CO)C(O)C3O)c2[nH]1 (stereo not given)
Potency [1]: active: 33.6 µM
Potency [2]: active: 26.9 µM

Cc1c(Cl)cnc(NC(=O)COC(=O)/C=C/c2ccco2)c1Cl
Potency [1]: inconclusive: 67 µM [inhibitor, partial curve]
Potency [2]: active: 60.1 µM

O=c1c2ccccc2c(C=Nc2cccc(O)c2)c(O)n1-c1ccc2c(c1)OCO2
Potency [1]: inconclusive: 67 µM [inhibitor, partial curve]
Potency [2]: inconclusive: 84.9 µM [inhibitor, single point]

CC(/C=C/c1ccc(N(C)C)cc1)=N\N=C(/N)SC1CC(=O)N(c2ccc(C(=O)O)cc2)C1=O (stereo not given)
Potency [1]: active: 67 µM
Potency [2]: inconclusive: 75.7 µM [inhibitor, partial curve]

COc1ccc(C(=O)OCC(=O)Nc2ncc([N+](=O)[O-])s2)cc1OC
Potency [1]: active: 18.9 µM
Potency [2]: inconclusive: 9.53 µM [inhibitor, full curve, poor fit]

COc1ccc(C(=O)N2C(=S)NC(=O)/C2=C\c2ccc(C)cc2)cc1
Potency [1]: active: 75.2 µM
Potency [2]: inconclusive: 75.7 µM [inhibitor, single point]

COc1ccc(/C=C2\C(=O)NC(=S)N2C(=O)c2ccc(C)cc2)cc1
Potency [1]: inconclusive: 75.2 µM [inhibitor, partial curve]
Potency [2]: inconclusive: 84.9 µM [inhibitor, single point]

C=CCn1c(SCC(=O)c2ccc(O)c(O)c2)nnc1-c1ccc(OC)cc1
Potency [1]: inconclusive: 67 µM [inhibitor, partial curve]
Potency [2]: inconclusive: 75.7 µM [inhibitor, partial curve, poor fit]
Potency [6]: inconclusive: 21.5 µM [inhibitor, partial curve, poor fit]

COc1ccc(-n2nc3cc(C)c(N)c(Br)c3n2)cc1
Potency [5]: inactive

Cc1cc(/C=C2\SC(=S)NC2=O)c(C)[nH]1
Potency [1]: inconclusive: 84.4 µM [inhibitor, single point]
Potency [2]: active: 75.7 µM

CCCCN(C(=O)c1cc2c(s1)CCC2)c1c(N)n(CC(C)C)c(=O)[nH]c1=O
Potency [1]: inconclusive: 59.7 µM [inhibitor, partial curve]
Potency [2]: inconclusive: 84.9 µM [inhibitor, single point]

COCCN1C(=O)c2oc3ccccc3c(=O)c2C1c1ccc(OC)c(OC)c1 (stereo not given)
Potency [1]: active: 84.4 µM
Potency [2]: inconclusive: 95.3 µM [inhibitor, single point]

CCc1cc(=O)oc2cc(C)c(CN3CCCCC3)c(O)c12
Potency [5]: inconclusive: 27.1 µM [inhibitor, partial curve]

CCOC(=O)c1cccc(NC(=O)c2cc3cc4cc(OC)ccc4nc3s2)c1
Potency [1]: inconclusive: 67 µM [inhibitor, partial curve]
Potency [2]: inconclusive: 95.3 µM [inhibitor, single point]

COc1ccc(C(=O)/C=C/c2ccc(OCc3ccccc3)cc2)cc1CSCC(=O)O
Potency [1]: inconclusive: 84.4 µM [inhibitor, single point]
Potency [2]: inconclusive: 84.9 µM [inhibitor, single point]

COc1ccc2[nH]c3c(=O)n(Cc4ccc(C(=O)NCC5CCCO5)cc4)c(=S)[nH]c3c2c1 (stereo not given)
Potency [1]: inconclusive: 42.3 µM [inhibitor, partial curve]
Potency [2]: active: 75.7 µM

O=C(/C=C/c1cccc2ccccc12)c1ccncc1
Potency [5]: inactive

O=C(c1cccc(-n2cccc2)c1)N1CCN(S(=O)(=O)c2c(F)cccc2F)CC1
Potency [1]: active: 67 µM
Potency [2]: active: 75.7 µM

Cc1c(N=Nc2c(-c3ccc([N+](=O)[O-])cc3)[nH]n(C(N)=S)c2=O)cccc1[N+](=O)[O-]
Potency [1]: inconclusive: 75.2 µM [inhibitor, single point]
Potency [2]: inconclusive: 84.9 µM [inhibitor, single point]

CCN(CC)c1ccc2c(c1)oc(=O)c1c(Cl)cc(=O)oc12
Potency [1]: inconclusive: 75.2 µM [inhibitor, partial curve]
Potency [2]: inconclusive: 84.9 µM [inhibitor, single point]
